Drawing on paper PMC7819943, “Rice protein-binding microarrays: a tool to detect cis-acting elements near promoter regions in rice”, this text covers binding signal for 23 sequences.

This is one part of the list.

This test has as its target T1, OsSMF1 (Oryza sativa, UniProt Q6ZLB0 1-436).
T1 sequence: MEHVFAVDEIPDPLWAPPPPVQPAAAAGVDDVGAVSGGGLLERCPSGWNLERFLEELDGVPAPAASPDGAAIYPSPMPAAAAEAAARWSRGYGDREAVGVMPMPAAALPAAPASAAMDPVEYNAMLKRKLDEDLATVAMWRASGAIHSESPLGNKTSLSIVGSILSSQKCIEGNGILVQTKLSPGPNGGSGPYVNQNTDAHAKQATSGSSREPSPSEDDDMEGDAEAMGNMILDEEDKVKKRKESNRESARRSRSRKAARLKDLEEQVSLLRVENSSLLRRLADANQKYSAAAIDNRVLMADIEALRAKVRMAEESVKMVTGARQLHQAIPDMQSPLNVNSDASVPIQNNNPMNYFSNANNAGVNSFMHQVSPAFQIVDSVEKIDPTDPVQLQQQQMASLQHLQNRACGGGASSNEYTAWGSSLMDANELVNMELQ
The experiment in a line: protein-binding microarray (RPBM); PBS, 2% BSA, 51.3 ng/ul salmon testes DNA, 50 uM zinc acetate, 200 nM TF, 25 C, 1 h; high values mean tight binding. To be noted: protein: recombinant; tags: N-terminal polyhistidine and DsRed monomer fusion (pET32a); chain copies: 2; label: CyDye5-dUTP incorporated in the synthesized complementary strand; 3' TTTTT single-stranded linker to array surface; dsDNA, one strand shown. The gist of the method:
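Per-feature fluorescence intensity (arbitrary units), read on an Axon 4000B scanner, is the binding signal. Transcription factors carrying an N-terminal polyhistidine tag and DsRed fusion were expressed in E. coli BL21-CodonPlus and purified on Ni–NTA. A custom Agilent array, made double-stranded by primer extension with Cy5-dUTP and blocked with 2% BSA, was incubated with 200 nM protein in PBS, 2% BSA, salmon testes DNA and 50 µM zinc acetate at 25 °C for 1 h and then washed.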
“GAATCAACCAGTGGCCTCAACATAATCATCCCTGAGGTTACGGAGTCACCTAGTGCAG”: the binding signal is 3480 fluorescence intensity (a.u.).

“TTGACGTATATATACGAGTCTATGTCATCAGTAATAATGTCGGAGTCACCTAGTGCAG”: the binding signal is 4940 fluorescence intensity (a.u.).

In the case of “ACGGCCCAATAGGCCCATTAACGTTAGAAATGCTCGGCTCCGGAGTCACCTAGTGCAG”, the binding signal is 32800 fluorescence intensity (a.u.).

Regarding “AAATCACGGATTAAATCTACGTACGTGGCGTGCAAATCCTCGGAGTCACCTAGTGCAG”, the binding signal was 6870 fluorescence intensity (a.u.).

Regarding “CACAAATTTGTCGTGAACAACTTGCTGAATTACCATCCTTCGGAGTCACCTAGTGCAG”, the binding signal is 16500 fluorescence intensity (a.u.).

Take “TATTTGTAGCCAGCTGTAGCACGGACTCCAAGACACAGTGCGGAGTCACCTAGTGCAG”: the binding signal is 3230 fluorescence intensity (a.u.).

Regarding “CTCCTGCCCACCAATCTTGCGGCGGAAAACAAGGCGTGATCGGAGTCACCTAGTGCAG”, the binding signal was 4000 fluorescence intensity (a.u.).

For the sequence “TTTCAAACATAGCCACGATGACTCGAGTCGTGTCATAACGCGGAGTCACCTAGTGCAG”, the binding signal was 5870 fluorescence intensity (a.u.).

Turning to “CTGCGGTGATTTCTAAACCATAGTAACCACAACTAAACAACGGAGTCACCTAGTGCAG”, the binding signal was 26300 fluorescence intensity (a.u.).

Consider “GTCCAGCCTCCTCCTCCGCTGACCTCCTCGCGGTCTTCTCCGGAGTCACCTAGTGCAG”, for which the binding signal was 4520 fluorescence intensity (a.u.).

On to “GACATGAAGTCATGCACAAAGCGTCAAGGCCAGCGAGGCACGGAGTCACCTAGTGCAG”, for which the binding signal is 3960 fluorescence intensity (a.u.).

For the sequence “CACTGTCGTGTCGCAGTCTCTCTCCCATCCCTCGTCTATACGGAGTCACCTAGTGCAG”, the binding signal was 24300 fluorescence intensity (a.u.).

In the case of “TTTTAACACTGCAATCCATCATGCATCACAGTAGGATCATCGGAGTCACCTAGTGCAG”, the binding signal is 3920 fluorescence intensity (a.u.).

As to “AAGGAGAGTAAAGTTTGACTCCACAGTCCACCACCCGTGACGGAGTCACCTAGTGCAG”, the binding signal is 3750 fluorescence intensity (a.u.).

As to “GCTAACCATAATGATGACAATTGCCTGACAGAGAAAGACACGGAGTCACCTAGTGCAG”, the binding signal is 3640 fluorescence intensity (a.u.).

For the sequence “TGAGCACATGGCAGGGGAGGGACCGATGGGTGGGAGGACGCGGAGTCACCTAGTGCAG”, the binding signal is 3850 fluorescence intensity (a.u.).

Take “GTGGGCCACTACCTTCGCGTTCTTCATCGCCCACGTGGTCCGGAGTCACCTAGTGCAG”: the binding signal is 6290 fluorescence intensity (a.u.).

Regarding “GACGACGGCATCGTCGTCGGCGTCAGCGGGGACGACCGCCCGGAGTCACCTAGTGCAG”, the binding signal was 4650 fluorescence intensity (a.u.).

For the sequence “GTTGCCGCTACACCTTCCACCTCAGCACCCTCGATGGCCTCGGAGTCACCTAGTGCAG”, the binding signal was 14600 fluorescence intensity (a.u.).

As to “CAACTGATCACTACTTCGGGTGCAAAGTTGTAAACTCAACCGGAGTCACCTAGTGCAG”, the binding signal is 3310 fluorescence intensity (a.u.).

For the sequence “ACTGACTCTGACACACATCCTATCAAGCCTATACACATATCGGAGTCACCTAGTGCAG”, the binding signal was 4760 fluorescence intensity (a.u.).

With “GAACTCTGCAGAATTATCATGTCACCAGTGTCCGCCAATACGGAGTCACCTAGTGCAG”, the binding signal was 3400 fluorescence intensity (a.u.).

Take “TTCGGCCGCGCCTACCTCTTCGACCACGTGTACGCGTCCTCGGAGTCACCTAGTGCAG”: the binding signal was 6880 fluorescence intensity (a.u.).
